# From the supplement of paper PMC8728848
# The list shows a part of the results.
# B1: LlpB (Pseudomonas fluorescens) (protein)
# chain: MGSSHHHHHHSSGLVPRGSHMASSGFRIILFNSANNGTAILPPRNCLVAGQYLESPSKRYKLILEADGNLRLYDNGVPIWVADSSVPYTYVDNRPNTNLVTCFYMQGSAFLVDRVGSRTWATIGDWIDGAADRAYLQVQDDGNVVVVDGVPRWARFGFTPAALPNRGVFYPDHGTGPLPSFPVWSWTF
# Key:
# Experiment in all cases: glycan array binding signal (z-score within array); higher = stronger binding
# Conditions in all cases: glycan notation: IUPAC condensed, linker removed
# Fuc(a1-2)Gal = biological target: Fuc(a1-2)Gal
# Outline: (§1)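 Columns mapping to the same glycan were averaged after glycan names were converted to IUPAC-condensed notation. The data come from 3228 arrays in the Consortium for Functional Glycomics database, limited to those with an available protein sequence. Binding is reported as a within-array Z-score averaged across arrays of one protein sequence and across linkers.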
# Fuc(a1-2)Gal(b1-3)GalNAc = biological target: Fuc(a1-2)Gal(b1-3)GalNAc
# Outline: as §1
# [1] = biological target: Fuc(a1-2)Gal(b1-3)GalNAc(a1-3)[Fuc(a1-2)]Gal(b1-4)Glc
# Outline: as §1
# [2] = biological target: Fuc(a1-2)Gal(b1-3)GalNAc(a1-3)[Fuc(a1-2)]Gal(b1-4)GlcNAc
# Outline: as §1
# [3] = biological target: Fuc(a1-2)Gal(b1-3)GalNAc(b1-3)Gal
# Outline: as §1
# [4] = biological target: Fuc(a1-2)Gal(b1-3)GalNAc(b1-3)Gal(a1-4)Gal(b1-4)Glc
# Outline: as §1
# [5] = biological target: Fuc(a1-2)Gal(b1-3)GalNAc(b1-4)[Neu5Ac(a2-3)]Gal(b1-4)Glc
# Outline: as §1
# Fuc(a1-2)Gal(b1-3)GlcNAc = biological target: Fuc(a1-2)Gal(b1-3)GlcNAc
# Outline: as §1
# [6] = biological target: Fuc(a1-2)Gal(b1-3)GlcNAc(b1-2)Man(a1-3)[Fuc(a1-2)Gal(b1-3)GlcNAc(b1-2)Man(a1-6)]Man(b1-4)GlcNAc(b1-4)GlcNAc
# Outline: as §1
# [7] = biological target: Fuc(a1-2)Gal(b1-3)GlcNAc(b1-2)Man(a1-3)[Fuc(a1-2)Gal(b1-3)GlcNAc(b1-2)Man(a1-6)]Man(b1-4)GlcNAc(b1-4)[Fuc(a1-6)]GlcNAc
# Outline: as §1
# [8] = biological target: Fuc(a1-2)Gal(b1-3)GlcNAc(b1-3)Gal(b1-4)Glc
# Outline: as §1
# [9] = biological target: Fuc(a1-2)Gal(b1-3)GlcNAc(b1-3)GalNAc
# Outline: as §1
# [10] = biological target: Fuc(a1-2)Gal(b1-3)GlcNAc(b1-3)[Fuc(a1-2)Gal(b1-3)GlcNAc(b1-6)]GalNAc
# Outline: as §1
# [11] = biological target: Fuc(a1-2)Gal(b1-3)GlcNAc(b1-3)[Gal(b1-4)GlcNAc(b1-6)]Gal(b1-4)Glc
# Outline: as §1
# [12] = biological target: Fuc(a1-2)Gal(b1-3)GlcNAc(b1-3)[Neu5Ac(a2-6)Gal(b1-4)GlcNAc(b1-6)]Gal(b1-4)Glc
# Outline: as §1
# [13] = biological target: Fuc(a1-2)Gal(b1-3)GlcNAc6S
# Outline: as §1
# [14] = biological target: Fuc(a1-2)Gal(b1-3)[Fuc(a1-4)]GlcNAc
# Outline: as §1
# [15] = biological target: Fuc(a1-2)Gal(b1-3)[Fuc(a1-4)]GlcNAc(b1-2)Man(a1-3)[Fuc(a1-2)Gal(b1-3)[Fuc(a1-4)]GlcNAc(b1-2)Man(a1-3)]Man(b1-4)GlcNAc(b1-4)GlcNAc
# Outline: as §1
# [16] = biological target: Fuc(a1-2)Gal(b1-3)[Fuc(a1-4)]GlcNAc(b1-2)Man(a1-3)[Fuc(a1-2)Gal(b1-3)[Fuc(a1-4)]GlcNAc(b1-2)Man(a1-6)]Man(b1-4)GlcNAc(b1-4)[Fuc(a1-6)]GlcNAc(b1-4)[Fuc(a1-6)]GlcNAc
# Outline: as §1
# [17] = biological target: Fuc(a1-2)Gal(b1-3)[Fuc(a1-4)]GlcNAc(b1-3)[Fuc(a1-3)[Gal(b1-4)]GlcNAc(b1-6)]Gal(b1-4)Glc
# Outline: as §1
# [18] = biological target: Fuc(a1-2)Gal(b1-3)[Fuc(a1-4)]GlcNAc(b1-3)[Gal(b1-4)GlcNAc(b1-6)]Gal(b1-4)Glc
# Outline: as §1
# Fuc(a1-2)Gal(b1-4)Glc = biological target: Fuc(a1-2)Gal(b1-4)Glc
# Outline: as §1
# Fuc(a1-2)Gal(b1-4)Glc6S = biological target: Fuc(a1-2)Gal(b1-4)Glc6S
# Outline: as §1
# Fuc(a1-2)Gal(b1-4)GlcNAc = biological target: Fuc(a1-2)Gal(b1-4)GlcNAc
# Outline: as §1
# [19] = biological target: Fuc(a1-2)Gal(b1-4)GlcNAc(b1-2)Man
# Outline: as §1
# [20] = biological target: Fuc(a1-2)Gal(b1-4)GlcNAc(b1-2)Man(a1-3)[Fuc(a1-2)Gal(b1-4)GlcNAc(b1-2)Man(a1-6)]Man(b1-4)GlcNAc(b1-4)GlcNAc
# Outline: as §1
# [21] = biological target: Fuc(a1-2)Gal(b1-4)GlcNAc(b1-2)Man(a1-3)[Fuc(a1-2)Gal(b1-4)GlcNAc(b1-2)Man(a1-6)]Man(b1-4)GlcNAc(b1-4)[Fuc(a1-6)]GlcNAc
# Outline: as §1
# [22] = biological target: Fuc(a1-2)Gal(b1-4)GlcNAc(b1-2)[Fuc(a1-2)Gal(b1-4)GlcNAc(b1-4)]Man(a1-3)[Fuc(a1-2)Gal(b1-4)GlcNAc(b1-2)Man(a1-6)]Man(b1-4)GlcNAc(b1-4)GlcNAc
# Outline: as §1
# [23] = biological target: Fuc(a1-2)Gal(b1-4)GlcNAc(b1-3)Gal(b1-4)GlcNAc
# Outline: as §1
# [24] = biological target: Fuc(a1-2)Gal(b1-4)GlcNAc(b1-3)Gal(b1-4)GlcNAc(b1-2)Man(a1-3)[Fuc(a1-2)Gal(b1-4)GlcNAc(b1-3)Gal(b1-4)GlcNAc(b1-2)Man(a1-6)]Man(b1-4)GlcNAc(b1-4)GlcNAc
# Outline: as §1
binder,measurement,setting,value
B1,glycan array binding signal (z-score),Fuc(a1-2)Gal,-0.044
same,glycan array binding signal (z-score),Fuc(a1-2)Gal(b1-3)GalNAc,-0.631
same,glycan array binding signal (z-score),[1],-1.67
same,glycan array binding signal (z-score),[2],-0.569
same,glycan array binding signal (z-score),[3],-0.59
same,glycan array binding signal (z-score),[4],-0.376
same,glycan array binding signal (z-score),[5],0.297
same,glycan array binding signal (z-score),Fuc(a1-2)Gal(b1-3)GlcNAc,-0.061
same,glycan array binding signal (z-score),[6],-1.16
same,glycan array binding signal (z-score),[7],-0.114
same,glycan array binding signal (z-score),[8],0.091
same,glycan array binding signal (z-score),[9],0.052
same,glycan array binding signal (z-score),[10],-0.412
same,glycan array binding signal (z-score),[11],0.218
same,glycan array binding signal (z-score),[12],-0.611
same,glycan array binding signal (z-score),[13],1.11
same,glycan array binding signal (z-score),[14],1.05
same,glycan array binding signal (z-score),[15],-1.13
same,glycan array binding signal (z-score),[16],-0.776
same,glycan array binding signal (z-score),[17],-1.23
same,glycan array binding signal (z-score),[18],0.129
same,glycan array binding signal (z-score),Fuc(a1-2)Gal(b1-4)Glc,0.167
same,glycan array binding signal (z-score),Fuc(a1-2)Gal(b1-4)Glc6S,0.68
same,glycan array binding signal (z-score),Fuc(a1-2)Gal(b1-4)GlcNAc,-0.373
same,glycan array binding signal (z-score),[19],-0.348
same,glycan array binding signal (z-score),[20],0.482
same,glycan array binding signal (z-score),[21],0.033
same,glycan array binding signal (z-score),[22],-0.173
same,glycan array binding signal (z-score),[23],0.485
same,glycan array binding signal (z-score),[24],1.46

# Exported bar-delimited: entries from further up.
binder | measurement | setting | value
B1 | glycan array binding signal (z-score) | [10] | -0.412
same | glycan array binding signal (z-score) | [11] | 0.218
